# According to paper PMC6765112, “Specificity of MYB interactions relies on motifs in ordered and disordered contexts” (Nucleic Acids Research, 2019):
# Sequences of proteins named here, by UniProt entry; tags and fusion partners are left off. A change or cut given only in a name is not applied to a line headed by its entry.
# UniProt Q9FIP9: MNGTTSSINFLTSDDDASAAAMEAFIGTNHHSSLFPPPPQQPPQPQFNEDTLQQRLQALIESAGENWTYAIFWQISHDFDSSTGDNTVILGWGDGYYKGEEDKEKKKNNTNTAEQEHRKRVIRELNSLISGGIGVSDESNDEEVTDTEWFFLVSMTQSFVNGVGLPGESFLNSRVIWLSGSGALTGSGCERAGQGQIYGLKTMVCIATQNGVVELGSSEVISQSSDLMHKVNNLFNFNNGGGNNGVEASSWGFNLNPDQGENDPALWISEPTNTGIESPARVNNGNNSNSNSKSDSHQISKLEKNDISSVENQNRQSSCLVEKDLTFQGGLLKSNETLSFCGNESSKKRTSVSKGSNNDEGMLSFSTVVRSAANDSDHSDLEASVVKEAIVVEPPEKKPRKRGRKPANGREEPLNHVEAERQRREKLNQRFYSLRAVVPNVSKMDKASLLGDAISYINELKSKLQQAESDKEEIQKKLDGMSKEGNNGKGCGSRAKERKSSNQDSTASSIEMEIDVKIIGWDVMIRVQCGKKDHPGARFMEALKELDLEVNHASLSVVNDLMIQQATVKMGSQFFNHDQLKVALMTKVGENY
# UniProt O49687: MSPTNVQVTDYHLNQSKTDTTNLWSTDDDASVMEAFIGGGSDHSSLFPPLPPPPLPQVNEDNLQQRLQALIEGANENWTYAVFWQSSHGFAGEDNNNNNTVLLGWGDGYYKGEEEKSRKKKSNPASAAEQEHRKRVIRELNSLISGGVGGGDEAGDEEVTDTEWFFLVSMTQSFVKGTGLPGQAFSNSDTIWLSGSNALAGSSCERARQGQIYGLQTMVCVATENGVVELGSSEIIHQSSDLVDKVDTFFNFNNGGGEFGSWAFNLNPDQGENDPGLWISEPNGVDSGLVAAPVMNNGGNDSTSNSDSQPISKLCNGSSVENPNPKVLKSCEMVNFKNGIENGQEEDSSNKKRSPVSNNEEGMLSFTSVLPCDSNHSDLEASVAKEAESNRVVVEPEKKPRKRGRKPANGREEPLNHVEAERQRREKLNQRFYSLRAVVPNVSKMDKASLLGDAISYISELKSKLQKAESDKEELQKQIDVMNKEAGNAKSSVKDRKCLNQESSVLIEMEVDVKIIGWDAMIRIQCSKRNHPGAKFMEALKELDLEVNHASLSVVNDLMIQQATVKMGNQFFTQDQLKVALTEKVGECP
# UniProt Q9M9U2: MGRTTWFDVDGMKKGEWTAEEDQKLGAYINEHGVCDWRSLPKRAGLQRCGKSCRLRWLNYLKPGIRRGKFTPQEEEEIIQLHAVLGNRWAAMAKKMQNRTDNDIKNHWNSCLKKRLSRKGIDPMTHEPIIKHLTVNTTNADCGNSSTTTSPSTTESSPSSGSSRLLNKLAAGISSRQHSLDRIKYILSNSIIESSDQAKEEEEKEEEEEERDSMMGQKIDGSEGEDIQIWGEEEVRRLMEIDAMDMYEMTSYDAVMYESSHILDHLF
# UniProt Q9FE25: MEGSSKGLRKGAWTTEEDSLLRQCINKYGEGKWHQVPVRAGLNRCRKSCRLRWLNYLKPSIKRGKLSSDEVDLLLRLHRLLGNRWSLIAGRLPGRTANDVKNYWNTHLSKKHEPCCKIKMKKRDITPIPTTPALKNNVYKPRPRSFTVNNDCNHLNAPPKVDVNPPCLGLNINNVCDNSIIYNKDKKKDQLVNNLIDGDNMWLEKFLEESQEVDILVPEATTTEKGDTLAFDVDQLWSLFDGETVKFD
# Legend:
# Test in all cases: split-ubiquitin assay; chemically inducible dimerization split-ubiquitin system in yeast NMY51 TOR1-1 Δfpr1; bHLH as bait (pFKBP12), MYB as prey (pFRB); drop tests of three colonies on SD-AHLW, 2 days at 30°C; SD-AHLW+Rapa as positive control
# [1] = target: MYC3 (Arabidopsis thaliana) (UniProt Q9FIP9)
# [2] = target: MYC4 (Arabidopsis thaliana) (UniProt O49687)
# [3] = target: T1, GL3 (Arabidopsis thaliana) (UniProt Q9FN69)
# T1 sequence: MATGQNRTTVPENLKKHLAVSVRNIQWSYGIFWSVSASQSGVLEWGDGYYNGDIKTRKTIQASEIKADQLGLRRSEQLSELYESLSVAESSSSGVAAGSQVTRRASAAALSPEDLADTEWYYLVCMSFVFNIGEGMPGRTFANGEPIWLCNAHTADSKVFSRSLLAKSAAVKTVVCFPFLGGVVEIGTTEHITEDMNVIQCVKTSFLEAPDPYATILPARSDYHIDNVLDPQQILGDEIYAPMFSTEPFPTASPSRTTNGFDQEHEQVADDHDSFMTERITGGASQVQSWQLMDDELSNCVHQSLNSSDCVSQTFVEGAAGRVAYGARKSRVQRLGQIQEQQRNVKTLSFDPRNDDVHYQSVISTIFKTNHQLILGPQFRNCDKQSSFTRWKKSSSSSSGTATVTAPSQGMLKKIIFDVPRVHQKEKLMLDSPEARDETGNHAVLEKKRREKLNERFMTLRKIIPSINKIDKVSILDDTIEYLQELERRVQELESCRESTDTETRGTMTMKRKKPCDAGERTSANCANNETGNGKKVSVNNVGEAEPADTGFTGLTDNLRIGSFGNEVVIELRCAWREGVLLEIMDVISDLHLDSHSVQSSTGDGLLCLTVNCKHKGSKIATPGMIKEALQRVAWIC
binding [1],binding [2],binding [3],Substance
binds,binds,,MYB47 (from UniProt Q9M9U2)
,,no binding,MYB75 with mutated RB motif (from UniProt Q9FE25)

# These are yes or no findings as the source states them, for the method shown. Binding seen in cells or lysates may run through a third protein. For part of these data: A result given as binding can be weak or reduced; the word gives no strength.
